Source: patent US20100256357A1, “HETEROCYCLES USEFUL AS INHIBITORS OF CARBONIC ANHYDRASE” (Agouron Pharmaceuticals, Inc., priority 2006, published 2010)
pIC50, pKd: −log10 of the molar value. The structures given here were assigned with low confidence; some may be wrong.

Protein sequences, listed by entry. Tags and fused reporters are not part of them. Residues count along the entry.
UniProt P22748, 19-284 limits assumed: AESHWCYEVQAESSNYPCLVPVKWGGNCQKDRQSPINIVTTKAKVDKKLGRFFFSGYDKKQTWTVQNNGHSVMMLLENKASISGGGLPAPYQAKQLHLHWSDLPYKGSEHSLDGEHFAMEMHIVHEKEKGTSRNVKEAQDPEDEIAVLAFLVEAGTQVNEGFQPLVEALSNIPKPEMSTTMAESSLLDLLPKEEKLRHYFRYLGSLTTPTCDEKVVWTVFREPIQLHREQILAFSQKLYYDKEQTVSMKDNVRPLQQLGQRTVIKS
UniProt P00915, whole entry: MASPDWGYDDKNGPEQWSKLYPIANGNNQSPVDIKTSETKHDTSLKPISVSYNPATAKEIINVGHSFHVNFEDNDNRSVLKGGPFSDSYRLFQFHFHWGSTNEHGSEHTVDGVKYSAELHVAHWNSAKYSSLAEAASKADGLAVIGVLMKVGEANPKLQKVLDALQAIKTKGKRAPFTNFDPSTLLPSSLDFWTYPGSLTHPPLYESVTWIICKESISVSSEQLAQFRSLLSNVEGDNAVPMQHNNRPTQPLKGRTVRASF

Assays:
[1] = molecular target: human CA-IV (Homo sapiens, UniProt P22748); assay: Carbonic Anhydrase-IV (CA-IV) Fluorescence Polarization Assay-IC50 Determination; type: binding; details: read-out: IC50_CAIV
[2] = molecular target: human CA-II (Homo sapiens, UniProt P00918); assay: Carbonic Anhydrase-II (CA-II) Fluorescence Polarization Tight Binding Assay-Kd Determination; details: read-out: Kd_CAII
[3] = molecular target: CAI (Homo sapiens, UniProt P00915); assay: CAI IC50 (no method described); type: biochemical; details: read-out: IC50_CAI

CCCCN(C)C(=O)c1nc(Cc2ccccc2)n(-c2ccc(S(N)(=O)=O)cc2F)n1
pIC50 [1]: 6.77
pKd [2]: 9.62
pIC50 [3]: 6.94
